Results on two molecules are retold here after publication doi:10.1101/2021.04.08.438850.

Experiment in all cases: co-IP
Test [1] has as its target T1, Pof8, myc-tagged (S. pombe) (UniProt O13795).
T1 sequence: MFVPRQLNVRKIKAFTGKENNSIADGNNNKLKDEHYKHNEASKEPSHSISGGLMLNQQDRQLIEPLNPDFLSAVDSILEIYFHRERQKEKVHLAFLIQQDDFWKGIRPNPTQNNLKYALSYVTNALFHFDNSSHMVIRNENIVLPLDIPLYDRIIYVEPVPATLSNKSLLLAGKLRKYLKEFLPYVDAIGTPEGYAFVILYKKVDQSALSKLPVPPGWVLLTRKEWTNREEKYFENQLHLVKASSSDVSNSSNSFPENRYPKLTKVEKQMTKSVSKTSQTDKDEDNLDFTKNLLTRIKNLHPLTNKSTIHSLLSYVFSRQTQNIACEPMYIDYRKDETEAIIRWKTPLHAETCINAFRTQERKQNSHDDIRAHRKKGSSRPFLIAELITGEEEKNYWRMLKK

Test [2] has as its target Bin3 (methyl phosphate capping enzyme homolog), protein A-tagged (S. pombe).
Test [3] has the same target. The source holds these as a separate data set.

Where two headings read alike, the source gives them in different places. No constants are given. Whether binding was seen depends on the method and setting. Binding seen in cells or lysates may run through a third protein. A result given as binding can be weak or reduced; the word gives no strength. Where a sequence is shown, tags or fusion partners need not be part of it.

Turning to “Bin3 (methyl phosphate capping enzyme homolog), protein A-tagged (S. pombe)”, the binding result in test [1] was “binds”.

B1: Pof8, myc-tagged (protein, UniProt O13795 1-402)
chain: MFVPRQLNVRKIKAFTGKENNSIADGNNNKLKDEHYKHNEASKEPSHSISGGLMLNQQDRQLIEPLNPDFLSAVDSILEIYFHRERQKEKVHLAFLIQQDDFWKGIRPNPTQNNLKYALSYVTNALFHFDNSSHMVIRNENIVLPLDIPLYDRIIYVEPVPATLSNKSLLLAGKLRKYLKEFLPYVDAIGTPEGYAFVILYKKVDQSALSKLPVPPGWVLLTRKEWTNREEKYFENQLHLVKASSSDVSNSSNSFPENRYPKLTKVEKQMTKSVSKTSQTDKDEDNLDFTKNLLTRIKNLHPLTNKSTIHSLLSYVFSRQTQNIACEPMYIDYRKDETEAIIRWKTPLHAETCINAFRTQERKQNSHDDIRAHRKKGSSRPFLIAELITGEEEKNYWRMLKK
With B1, the binding entry in test [2] and in test [3] was “binds” throughout.
